The values that follow come from patent US20260207762A1.

Results are given in words; binding and its absence hold for the method and conditions named. Some entries that bind do so weakly or less than the wild type.

This assay deals with T1, PROM2 (human) (UniProt Q8N271).
T1 sequence (looked up): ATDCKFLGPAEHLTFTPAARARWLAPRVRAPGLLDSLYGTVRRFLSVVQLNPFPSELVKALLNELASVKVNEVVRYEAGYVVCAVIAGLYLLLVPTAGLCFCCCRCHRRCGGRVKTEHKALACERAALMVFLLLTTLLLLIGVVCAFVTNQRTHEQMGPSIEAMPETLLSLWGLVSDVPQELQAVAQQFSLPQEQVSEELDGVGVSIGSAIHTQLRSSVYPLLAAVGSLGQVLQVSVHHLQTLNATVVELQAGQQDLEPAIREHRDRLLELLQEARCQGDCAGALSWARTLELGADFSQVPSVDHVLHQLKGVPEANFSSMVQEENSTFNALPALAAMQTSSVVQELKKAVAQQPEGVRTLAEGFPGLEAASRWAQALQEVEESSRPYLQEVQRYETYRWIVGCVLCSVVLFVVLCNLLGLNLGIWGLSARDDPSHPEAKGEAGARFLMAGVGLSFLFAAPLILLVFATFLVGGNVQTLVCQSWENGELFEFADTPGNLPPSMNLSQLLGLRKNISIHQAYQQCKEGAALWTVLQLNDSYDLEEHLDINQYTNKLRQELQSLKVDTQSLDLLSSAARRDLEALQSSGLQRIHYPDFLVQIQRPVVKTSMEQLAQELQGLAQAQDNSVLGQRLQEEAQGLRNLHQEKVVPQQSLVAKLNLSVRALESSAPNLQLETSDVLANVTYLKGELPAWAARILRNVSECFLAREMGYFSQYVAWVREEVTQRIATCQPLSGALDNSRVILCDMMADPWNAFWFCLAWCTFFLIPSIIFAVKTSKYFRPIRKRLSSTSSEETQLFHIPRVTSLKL
The experiment in a line: Retrogenix cell microarray.

B1: z2-XVT458-m2 (antibody, V domains shown)
VH: QVQLVQSGAEVKKPGASVKVSCKASGYTFTNFYIHWVRQAPGQGLEWMGRIYPNYGFTAYNQKFKDRVTMTVDTSTSTAYMELRSLRSDDTAVYYCARGYSYAMDYWGQGTTVTVSS
VL: DIQMTQSPSSVSASVGDRVTITCSASQGIYGDLNWYQQKPGKAPKLLIYHTSSLHSGVPSRFSGSGSGTDFTLTISSLQPEDFATYYCQAYSKDLLTFGGGTKLEIK
Regarding B1, the binding result is “binds”.
